Laboratory results: PubChem BioAssay AID198 (DTP/NCI, 2004)
The list is a part of this screen's results and no random one: it gathers tests that were run many times, whatever their T/C, doses with no T/C, and many T/C values between a quarter and a half above the control. Further doses and runs are listed elsewhere. T/C: endpoint of the treated group in % of that of the vehicle group. Some doses have a count of surviving animals in place of a T/C: the source files T/C as zero there, which appears to mark a toxic dose or a test without result, not a measured value. Some survivor counts are full or nearly so, which does not show that the dose was tolerated: the source hardly ever lists a survival T/C far under the control, and the zero likely stands for such cases as well. Counts of survivors are from the toxicity check (mostly the fifth day) where no day follows; animals may have died later. Schedule codes are those of the source, taken here to give the interval after Q, in days (D) or hours (H), and the number of doses after X. Where survival is the endpoint, this PubChem deposit counts one and a half times the control or more as active, and values a quarter to a half above the control carry no call in these data; other NCI protocols may use other cut-offs. Some T/C values are followed by the survivors on the day toxicity was checked, most often the fifth; where none is given, no animal had died by that day. *1 amine or outer side, *2 acyl side, *3 side chain or, on linkers, in order; H or OH if unused. Where a SMILES comes first, the peptide text is derived from it. Bridges are numbered along the chain shown (N, C = ends). Roman numbers before positions name the chains, in order. [ ]: non-standard residue; d: D form. Actinocin(9to1) = Cc1c2oc3c(C)ccc(C(=O)[*:1])c3nc-2c(C(=O)[*:2])c(N)c1=O; aThr = C[C@H](O)[C@H](N)C(=O)O; NMeV = CN[C@H](C(=O)O)C(C)C; Sar = CNCC(=O)O

System: B16 melanoma ip, C57BL/6 mice, median survival T/C
Test: NCI In Vivo Anticancer Drug Screen. Data for tumor model B16 Melanoma (intraperitoneal) in C57BL/6 mice
Conditions: T/C endpoint: median survival time, higher T/C = longer survival
Method: The antitumor activity of compounds was measured in mice bearing transplantable tumors. Survival or tumor size were measured and the results are expressed as the measurement made in the treated group (T) divided by the measurement made in the vehicle treated control group (C). The tumor model used in this assay is B16 Melanoma (intraperitoneal) in C57BL/6 mice

[1] = dose: 25.0 mg/kg/injection, schedule: Q01DX009 (ip), vehicle: saline with Tween-80
[2] = dose: 3.0 mg/kg/injection, schedule: Q01DX009 (ip), vehicle: saline
[3] = dose: 25.0 mg/kg/injection, schedule: Q01DX009 (ip), vehicle: saline
[4] = dose: 0.5 mg/kg/injection, schedule: Q01DX009 (ip), vehicle: saline
[5] = dose: 1.0 mg/kg/injection, schedule: Q01DX009 (ip), vehicle: saline
[6] = dose: 40.0 mg/kg/injection, schedule: Q01DX009 (ip), vehicle: saline
[7] = dose: 200.0 mg/kg/injection, schedule: Q01DX009 (ip), vehicle: saline with Tween-80
[8] = dose: 12.5 mg/kg/injection, schedule: Q01DX009 (ip), vehicle: saline

With `COc1cc(/C=N\O)nc(-c2ccccn2)c1` the survivor count (dose: 200.0 mg/kg/injection, schedule: Q01DX009 (ip), vehicle: saline) was 6 of 6.
With `CC1CCC(NC(=O)N(CCCl)N=O)CC1` (stereo not drawn) the T/C (dose: 30.0 mg/kg/injection, schedule: Q01DX001 (ip), vehicle: saline) was 125 % of control and the survivor count (dose: 60.0 mg/kg/injection, schedule: Q01DX001 (ip), vehicle: saline) was 4 of 6.
In the case of `COc1cc([C@@H]2c3cc4c(cc3C[C@H]3COC(=O)[C@@H]32)OCO4)cc(OC)c1OC`, the survivor count [1] is reported as 4 of 6 and the survivor count (dose: 50.0 mg/kg/injection, schedule: Q01DX009 (ip), vehicle: saline with Tween-80) is reported as 1 of 6.
`N[C@@H](Cc1ccc(N(CCCl)CCCl)cc1)C(=O)O` was tested, and the survivor count [2] was 10 of 10 and the survivor count (dose: 6.0 mg/kg/injection, schedule: Q01DX009 (ip), vehicle: saline) was 10 of 10.
`Cn1cc(NC(=O)c2cc(NC(=O)CN=C(N)N)cn2C)cc1C(=O)NCCC(=N)N` was tested, and the survivor count [3] was 5 of 10.
`C1CN1c1nc(N2CC2)nc(N2CC2)n1` was tested, and the T/C [4] was 140 % of control, the survivor count [4] was 10 of 10 and the survivor count [5] was 10 of 10.
In the case of `O=c1[nH]cc(F)c(=O)[nH]1`, the survivor count [6] is reported as 10 of 10.
With `COC(N)=O` the survivor count (dose: 500.0 mg/kg/injection, schedule: Q01DX009 (ip), vehicle: saline) was 10 of 10.
With `COc1cc(/C=C2/c3cc(Cl)ccc3-c3c(Cl)cc(Cl)cc32)cc(OC)c1OC` the survivor count (dose: 3.13 mg/kg/injection, schedule: Q01DX009 (ip), vehicle: saline with Tween-80) was 6 of 6, the survivor count (dose: 6.25 mg/kg/injection, schedule: Q01DX009 (ip), vehicle: saline with Tween-80) was 6 of 6 and the survivor count (dose: 12.5 mg/kg/injection, schedule: Q01DX009 (ip), vehicle: saline with Tween-80) was 6 of 6. The survivor count [1] was 6 of 6.
For `CCN(CC)CCOc1ccc2c(c1)C(=O)c1cc(OCCN(CC)CC)ccc1-2`, the survivor count [7] was 2 of 6.
`CC1([N+](=O)[O-])COP(=O)(NC2CCCC2)OC1` (stereo not drawn) was tested, and the survivor count (dose: 400.0 mg/kg/injection, schedule: Q01DX009 (ip), vehicle: saline) was 6 of 6.
`CCCCc1ccc(NC(=O)N(CCCl)N=O)cc1` was tested, and the T/C [8] was 125 % of control and the survivor count [3] was 6 of 6.
`CC1=C2C(=C[C@@](C)(CO)[C@@H]2O)C(=O)[C@](C)(O)C12CC2` was tested, and the T/C (dose: 0.4 mg/kg/injection, schedule: Q01DX009 (ip), vehicle: saline) was 126 % of control and the survivor count (dose: 0.8 mg/kg/injection, schedule: Q01DX009 (ip), vehicle: saline) was 10 of 10.
`O=C(O)CCCc1ccc(N(CCCl)CCCl)cc1` was tested, and the T/C (dose: 6.25 mg/kg/injection, schedule: Q01DX009 (ip), vehicle: saline) was 131 % of control, the T/C [8] was 125 % of control and the T/C [3] was 128 % of control [8 of 10 alive]. For the same compound, the survivor count [3] was 10 of 10.
With `CN1CCN(CCCN2c3ccccc3Sc3ccc(C(F)(F)F)cc32)CC1` the survivor count (dose: 50.0 mg/kg/injection, schedule: Q01DX009 (ip), vehicle: saline) was 6 of 10 and the survivor count (dose: 100.0 mg/kg/injection, schedule: Q01DX009 (ip), vehicle: saline) was 0 of 10.
With `CN1Cc2c(ccc3c2OCO3)[C@@H]2[C@H](O)Cc3cc4c(cc3[C@@H]21)OCO4` the survivor count (dose: 500.0 mg/kg/injection, schedule: Q01DX009 (ip), vehicle: saline with Tween-80) was 5 of 6.
For `CN[C@H]1CCc2cc(OC)c(OC)c(OC)c2-c2ccc(OC)c(=O)cc21`, the survivor count (dose: 10.0 mg/kg/injection, schedule: Q01DX009 (ip), vehicle: saline) was 9 of 10.
For `O=C(O)c1[nH]c(=O)[nH]c(=O)c1F`, the survivor count (dose: 20.0 mg/kg/injection, schedule: Q01DX009 (ip), vehicle: saline) was 10 of 10.
For `O=C1CN=C(c2ccc[nH]2)c2cc(Cl)ccc2N1`, the survivor count (dose: 400.0 mg/kg/injection, schedule: Q01DX009 (ip), vehicle: saline with Tween-80) was 6 of 6.
`COc1cc(NS(C)(=O)=O)ccc1Nc1c2ccccc2nc2ccccc12` was tested, and the T/C (dose: 0.5 mg/kg/injection, schedule: Q01DX009 (ip), vehicle: Klucel (hydroxypropylcellulose) (HPC)) was 131 % of control [9 of 10 alive], the T/C (dose: 1.0 mg/kg/injection, schedule: Q01DX009 (ip), vehicle: water) was 145 % of control and the survivor count (dose: 4.0 mg/kg/injection, schedule: Q01DX009 (ip), vehicle: Klucel (hydroxypropylcellulose) (HPC)) was 9 of 10. For the same compound, the survivor count (dose: 8.0 mg/kg/injection, schedule: Q01DX009 (ip), vehicle: Klucel (hydroxypropylcellulose) (HPC)) was 9 of 10 and the survivor count (dose: 8.0 mg/kg/injection, schedule: Q01DX009 (ip), vehicle: water) was 10 of 10.
`N#CSCc1ccc(Cl)cc1Cl` was tested, and the survivor count (dose: 100.0 mg/kg/injection, schedule: Q01DX009 (ip), vehicle: saline with Tween-80) was 4 of 6 and the survivor count [7] was 2 of 6.
`O=c1[nH]cc(N(CCCl)CCCl)c(=O)[nH]1` was tested, and the T/C (dose: 0.75 mg/kg/injection, schedule: Q01DX009 (ip), vehicle: saline) was 125 % of control, the survivor count (dose: 1.5 mg/kg/injection, schedule: Q01DX009 (ip), vehicle: saline) was 10 of 10 and the survivor count [2] was 10 of 10.
In the case of `COc1ccc2c3c(c4cc(OC)c(OC)cc4c2c1)C[C@H]1CCCCN1C3`, the T/C (dose: 0.13 mg/kg/injection, schedule: Q01DX009 (ip), vehicle: saline) is reported as 130 % of control and the survivor count [5] is reported as 10 of 10.
In the case of `CC1OC(O[C@@H]2C=C3CC[C@@H]4[C@H](CC[C@]5(C)[C@@H](c6ccc(=O)oc6)CC[C@]45O)[C@@]3(C)CC2)C(O)C(O)C1O` (stereo partly drawn), the survivor count (dose: 10.0 mg/kg/injection, schedule: Q01DX001 (sc), vehicle: steroid suspending solution) is reported as 4 of 10, the survivor count (dose: 10.0 mg/kg/injection, schedule: Q01DX009 (sc), vehicle: steroid suspending solution) is reported as 9 of 10 and the survivor count (dose: 20.0 mg/kg/injection, schedule: Q01DX001 (sc), vehicle: steroid suspending solution) is reported as 0 of 10. For the same compound, the survivor count (dose: 20.0 mg/kg/injection, schedule: Q01DX009 (sc), vehicle: steroid suspending solution) was 5 of 10, the survivor count (dose: 40.0 mg/kg/injection, schedule: Q01DX001 (sc), vehicle: steroid suspending solution) was 2 of 10 and the survivor count (dose: 80.0 mg/kg/injection, schedule: Q01DX001 (sc), vehicle: steroid suspending solution) was 0 of 10.
`S=c1nc[nH]c2nc[nH]c12` was tested, and the survivor count (dose: 60.0 mg/kg/injection, schedule: Q01DX009 (ip), vehicle: saline) was 10 of 10.
With `COc1cc(N(CCCl)CCCl)ccc1NC(=O)c1ccccc1` the T/C [8] was 145 % of control.
For `Cc1c2oc3c(C)ccc(C(=O)N[C@@H]4C(=O)N[C@H](C(C)C)C(=O)N5CCC[C@H]5C(=O)N(C)CC(=O)N(C)[C@@H](C(C)C)C(=O)O[C@H]4C)c3nc-2c(C(=O)N[C@@H]2C(=O)N[C@H](C(C)C)C(=O)N3CCC[C@H]3C(=O)N(C)CC(=O)N(C)[C@@H](C(C)C)C(=O)O[C@H]2C)c(N)c1=O` (I: [aThr][dV]P[Sar][NMeV] / II: [aThr][dV]P[Sar][NMeV]; ester I:1-I:C, II:1-II:C; linker I:N-II:N via Actinocin(9to1)), the T/C (dose: 0.03 mg/kg/injection, schedule: Q01DX009 (ip), vehicle: saline) was 139 % of control, the survivor count (dose: 0.1 mg/kg/injection, schedule: Q01DX009 (ip), vehicle: saline) was 10 of 10 and the survivor count (dose: 0.2 mg/kg/injection, schedule: Q01DX009 (ip), vehicle: saline) was 10 of 10.
With `C[n+]1c2ccccc2c(Nc2ccc(NS(=O)(=O)CCCCN=C(N)N)cc2)c2ccc(N)cc21` the T/C (dose: 0.37 mg/kg/injection, schedule: Q01DX009 (ip), vehicle: water) was 128 % of control, the T/C (dose: 0.75 mg/kg/injection, schedule: Q01DX009 (ip), vehicle: water) was 131 % of control and the T/C (dose: 1.5 mg/kg/injection, schedule: Q01DX009 (ip), vehicle: water) was 136 % of control. For the same compound, the T/C (dose: 3.0 mg/kg/injection, schedule: Q01DX009 (ip), vehicle: water) was 143 % of control and the survivor count (dose: 6.0 mg/kg/injection, schedule: Q01DX009 (ip), vehicle: water) was 10 of 10.
With `O=c1[nH]c(=O)n(C2CC(O)C(CO)O2)cc1F` (stereo not drawn) the T/C [6] was 132 % of control and the T/C (dose: 80.0 mg/kg/injection, schedule: Q01DX009 (ip), vehicle: saline) was 133 % of control.
